This list holds what a sample rich in hits left over. Calls of active or inactive are those of the source. The call rests on the fitted dose curve; in most records, active means well fitted activation curve with a large enough effect; inconclusive means small, poorly fitted or top-dose-only effect, or another doubt; inactive means no such curve, though single readings can be large or run the other way.
biological target: Rap guanine nucleotide exchange factor 4 (Homo sapiens) (UniProt Q8WZA2); assay: Validation qHTS for agonist of cAMP-regulated guanine nucleotide exchange factor 4 (EPAC2); settings: EPAC2 Rap1B BODIPY-GDP exchange, fluorescence; active compounds read high;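 further: exchange makes BODIPY-GDP fluorescence drop when released from Rap1B; series mostly up to about 150 µM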
Excerpt: Principle Investigator: Xiaodong Cheng Ph.D.
The University of Texas Medical Branch, […], TX
In multi-cellular eukaryotic organisms, the effects of cAMP are transduced by two ubiquitously-expressed intracellular cAMP receptors, the classic protein kinase A/cAMP-dependent protein kinase (PKA/cAPK) and the more recently discovered exchange protein directly activated by cAMP/cAMP-regulated guanine nucleotide exchange factor (EPAC/cAMP-GEF). Both PKA and EPAC are ubiquitously expressed in all tissues, and an increase in intracellular cAMP levels will lead to the activation of both PKA and EPAC. […]
This qHTS will be used to screen the Molecular Libraries Small Molecule Repository (MLSMR) as a concentration-titration series using the NCGC unique quantitative screening (qHTS) platform to find activators for EPAC1. […] Activators are identified by monitoring the change in fluorescence signal as the exchanged free BODIPY-GDP has a reduced fluorescence compared to Rap1-bound BODIPY-GDP. […]
Briefly, three uL of reagents (100 nM EPAC2, 250 nM RAP1B-BODIPY-GDP, 50 uM GDP) were dispensed into a 1536-well Greiner black solid-bottom medium binding assay plate. […] The assay plates were read at 5 minute intervals for 30 minutes in the ViewLux plate reader using 480nm excitation and 540nm emission filters. […]
On the % scale 0 is the no-effect control and ±100 the full control effect.

The chains behind the UniProt entries cited, without tags or fusion partners. Where a name states a change or a piece, a line headed by the entry shows the natural chain unless it says otherwise.
UniProt Q8WZA2: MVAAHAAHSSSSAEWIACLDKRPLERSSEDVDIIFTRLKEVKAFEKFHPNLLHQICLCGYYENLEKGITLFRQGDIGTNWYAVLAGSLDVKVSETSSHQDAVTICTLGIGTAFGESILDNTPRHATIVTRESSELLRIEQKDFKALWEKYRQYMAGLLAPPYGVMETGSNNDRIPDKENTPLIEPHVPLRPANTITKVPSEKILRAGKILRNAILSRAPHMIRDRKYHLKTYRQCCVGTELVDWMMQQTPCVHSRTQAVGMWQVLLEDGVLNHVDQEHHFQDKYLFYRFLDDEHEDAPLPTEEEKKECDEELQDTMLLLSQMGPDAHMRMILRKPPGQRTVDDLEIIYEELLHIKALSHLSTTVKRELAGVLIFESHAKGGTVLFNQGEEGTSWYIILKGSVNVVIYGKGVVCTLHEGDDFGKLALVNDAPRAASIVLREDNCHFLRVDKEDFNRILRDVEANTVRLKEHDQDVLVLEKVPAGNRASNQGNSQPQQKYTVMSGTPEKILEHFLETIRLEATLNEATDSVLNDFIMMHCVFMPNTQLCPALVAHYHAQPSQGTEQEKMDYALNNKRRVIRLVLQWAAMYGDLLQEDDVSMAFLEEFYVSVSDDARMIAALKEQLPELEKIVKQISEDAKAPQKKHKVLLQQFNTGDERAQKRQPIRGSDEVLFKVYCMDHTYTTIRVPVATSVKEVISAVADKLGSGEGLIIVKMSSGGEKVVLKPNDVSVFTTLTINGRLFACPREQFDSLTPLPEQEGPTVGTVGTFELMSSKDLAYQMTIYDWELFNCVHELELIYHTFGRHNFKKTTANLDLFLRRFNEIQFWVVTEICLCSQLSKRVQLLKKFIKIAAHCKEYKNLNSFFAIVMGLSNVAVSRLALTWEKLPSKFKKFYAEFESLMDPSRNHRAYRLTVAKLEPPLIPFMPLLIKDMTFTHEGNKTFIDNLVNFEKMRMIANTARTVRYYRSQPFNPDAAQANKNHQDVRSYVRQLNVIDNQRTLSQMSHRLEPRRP

| SMILES | activation |
| --- | --- |
| CC(C)(C)c1ccc(O)cc1 | inactive: -17.2% |
